Results are given in words; binding and its absence hold for the method and conditions named. In cells and extracts the contact can be indirect. Some binding calls cover weakened binding; strength is not graded here.

Amino acid sequences for entries named in this document (tags omitted).
UniProt O60260: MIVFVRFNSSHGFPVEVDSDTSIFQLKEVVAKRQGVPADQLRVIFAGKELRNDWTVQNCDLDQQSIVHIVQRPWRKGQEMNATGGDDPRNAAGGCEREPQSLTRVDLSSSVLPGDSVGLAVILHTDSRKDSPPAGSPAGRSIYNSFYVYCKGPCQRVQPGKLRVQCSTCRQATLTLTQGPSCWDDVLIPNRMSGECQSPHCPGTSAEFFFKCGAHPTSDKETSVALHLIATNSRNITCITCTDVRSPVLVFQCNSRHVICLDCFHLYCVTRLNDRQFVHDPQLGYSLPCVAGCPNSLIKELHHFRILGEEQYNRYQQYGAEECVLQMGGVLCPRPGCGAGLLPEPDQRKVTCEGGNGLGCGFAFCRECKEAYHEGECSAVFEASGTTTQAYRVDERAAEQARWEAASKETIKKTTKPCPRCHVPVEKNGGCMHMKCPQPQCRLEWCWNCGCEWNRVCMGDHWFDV
UniProt P0DMV8: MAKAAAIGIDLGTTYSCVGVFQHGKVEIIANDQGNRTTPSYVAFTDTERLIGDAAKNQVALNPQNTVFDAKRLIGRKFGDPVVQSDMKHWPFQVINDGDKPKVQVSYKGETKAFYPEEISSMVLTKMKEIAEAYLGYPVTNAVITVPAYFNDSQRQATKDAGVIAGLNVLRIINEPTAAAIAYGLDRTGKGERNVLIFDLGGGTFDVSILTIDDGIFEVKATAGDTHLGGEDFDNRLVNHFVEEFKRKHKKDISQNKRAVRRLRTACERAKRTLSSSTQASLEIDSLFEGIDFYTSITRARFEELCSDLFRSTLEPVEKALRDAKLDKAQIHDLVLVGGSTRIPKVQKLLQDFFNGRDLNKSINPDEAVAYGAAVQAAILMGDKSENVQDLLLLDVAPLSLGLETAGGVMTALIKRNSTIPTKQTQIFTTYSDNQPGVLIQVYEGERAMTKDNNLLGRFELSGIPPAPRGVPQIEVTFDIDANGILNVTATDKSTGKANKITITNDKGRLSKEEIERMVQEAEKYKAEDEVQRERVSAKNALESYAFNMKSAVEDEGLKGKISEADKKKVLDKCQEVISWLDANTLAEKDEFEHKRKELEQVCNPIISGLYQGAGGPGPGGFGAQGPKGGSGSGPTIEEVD

One experiment concerns the target GFP-parkin (human) (UniProt O60260). Put plainly: co-immunoprecipitation from HEK293T cells co-transfected with GFP-parkin, FLAG-BAG5 or FLAG-BAG5(DARA), and His-Hsp70.
For experiment [1], the target named is His-parkin (human) (UniProt O60260). Put plainly: in vitro GST pull-down (FIG. 4B).
Experiment [2] addresses T1, endogenous BAG5 in human brain lysate (human) (UniProt Q9UL15).
T1 sequence: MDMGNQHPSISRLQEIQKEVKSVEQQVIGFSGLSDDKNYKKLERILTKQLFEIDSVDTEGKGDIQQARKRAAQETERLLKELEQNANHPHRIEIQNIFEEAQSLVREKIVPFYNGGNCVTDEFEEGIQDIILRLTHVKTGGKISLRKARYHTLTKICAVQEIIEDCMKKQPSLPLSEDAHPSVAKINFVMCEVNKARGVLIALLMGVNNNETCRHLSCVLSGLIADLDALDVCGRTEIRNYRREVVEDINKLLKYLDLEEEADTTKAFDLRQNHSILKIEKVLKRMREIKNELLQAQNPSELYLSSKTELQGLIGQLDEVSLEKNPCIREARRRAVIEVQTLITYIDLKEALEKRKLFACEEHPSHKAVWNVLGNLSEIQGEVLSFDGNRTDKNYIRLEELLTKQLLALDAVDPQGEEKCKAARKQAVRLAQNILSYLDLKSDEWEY
Nature of the experiment: GST pull-down from human brain SNpc lysate.

Experiment [3] deals with His-parkin (human) (UniProt O60260). Nature of the experiment: in vitro GST pull-down with recombinant His-parkin.
Experiment [4] deals with T1, endogenous BAG5 in human brain lysate (human). Put plainly: GST pull-down from human brain SNpc lysate (FIG. 3B).

For His-Hsp70 (from UniProt P0DMV8 1-641), the binding entry in the experiment with GFP-parkin (human) is “binds”.
With GST-Hsp70 (from UniProt P0DMV8 1-641), the binding entry (in the experiment with His-parkin (human) [1]; in experiment [2]; with His-parkin (human) [3]; in experiment [4]) was “binds” in each case.

The record behind these values is patent US20060159681A1.
